Measured values: PubChem BioAssay AID651744 (Broad Institute, 2012)
The campaign covered roughly 5,600 compounds. About 3,100 (55%) were called active. So high a share suggests a set chosen from earlier hits. The shares of active, inactive and inconclusive entries below differ from those in the screen.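 How the source made its calls: active means mean loss of cell viability signal at or above a set limit, and enough replicates individually reaching it; inconclusive means meets only the mean limit or only the replicate share; inactive means meets neither condition.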

Test: NIH/3T3 fibroblast cytotoxicity, confirmation, cytotoxicity control, cell-based, cherry-pick, single point, set 2 (AID 651744);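 further: 0% = median of neutral control wells and 100% = median of positive control wells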
Settings: NIH/3T3 viability, CellTiter-Glo ATP luminescence, 90 h; at 24.9 µM; active compounds read high
For `C[C@H](CO)N1C[C@H](C)[C@H](CN(C)CC2CCCCC2)OCCCC[C@H](C)Oc2ccc(NC(=O)Nc3ccccc3)cc2C1=O`, the inhibition was active: 105%.
In the case of `CS(=O)(=O)N1CCCCN2[C@H](CO)[C@H](c3ccc(C#Cc4ccccn4)cc3)[C@@H]2C1`, the inhibition is reported as inactive: 12.4%.
With `O=C(C1CCCC1)N1C[C@H]2[C@@H](c3ccccc31)[C@H](CO)N2C(=O)c1ccccc1F` the inhibition was inconclusive: 23%.
In the case of `C[C@H]1CN([C@@H](C)CO)C(=O)c2cc(NC(=O)C3CCCCC3)ccc2O[C@@H]1CN(C)Cc1ccc(C(F)(F)F)cc1`, the inhibition is reported as inactive: 22.3%.
For `C[C@H](CO)N1C[C@H](C)[C@H](CN(C)C(=O)Cc2ccccc2)Oc2cc(C#Cc3ccccc3F)ccc2S1(=O)=O`, the inhibition was inconclusive: 31%.
In the case of `CN1C(=O)c2cc(NS(=O)(=O)c3ccc(F)cc3)ccc2OC[C@@H]2O[C@H](CC(=O)O)CC[C@H]21`, the inhibition is reported as inactive: 4.83%.
In the case of `COc1ccc(NC(=O)N2CCCCN3[C@H](CO)[C@@H](c4ccc(C#CCC(C)C)cc4)[C@@H]3C2)cc1`, the inhibition is reported as active: 104%.
In the case of `O=C(C[C@H]1CC[C@H]2[C@@H](COC[C@H](O)CN2S(=O)(=O)c2ccc(F)cc2)O1)N[C@H]1CCN(Cc2ccccc2)C1`, the inhibition is reported as inactive: -20.5%.
For `CCCNC(=O)N1[C@@H](C#N)[C@@H](c2ccc(C#Cc3ccc(F)cc3)cc2)[C@@H]1CO`, the inhibition was inconclusive: 17.4%.
In the case of `C[C@@H]1CCCCO[C@H](CN(C)C(=O)C2CCCCC2)[C@@H](C)CN([C@H](C)CO)C(=O)c2cc(NC(=O)Nc3ccc(C(F)(F)F)cc3)ccc2O1`, the inhibition is reported as inconclusive: 52.1%.
In the case of `O=S(=O)(c1cccs1)N1CCCCN2[C@H](C1)[C@H](c1ccc(C3=CCCCC3)cc1)[C@@H]2CO`, the inhibition is reported as inconclusive: 40.5%.
For `C[C@H]1CN([C@@H](C)CO)S(=O)(=O)c2ccc(C#Cc3cccc(F)c3)cc2O[C@H]1CN(C)S(=O)(=O)c1ccccc1F`, the inhibition was inconclusive: 77.9%.
With `COc1ccccc1-c1ccc2c(c1)O[C@@H](CN(C)S(=O)(=O)c1ccccc1)[C@@H](C)CN([C@@H](C)CO)S2(=O)=O` the inhibition was active: 41.9%.
For `C[C@H]1CCCCO[C@H](CN(C)C(=O)Nc2ccc(F)cc2)[C@@H](C)CN([C@@H](C)CO)C(=O)c2cc(NC(=O)c3ccccc3)ccc2O1`, the inhibition was inconclusive: 20.1%.
With `C[C@@H]1CN([C@@H](C)CO)C(=O)c2ccccc2-c2ccccc2CO[C@@H]1CN(C)Cc1ccncc1` the inhibition was inconclusive: 39.7%.
In the case of `C/C=C/c1ccc([C@H]2[C@@H](CO)N3CCCCN(S(=O)(=O)c4ccccc4)C[C@@H]23)cc1`, the inhibition is reported as inactive: 2.37%.
With `O=C(CN1CCOCC1)N1CCCCN2[C@@H](CO)[C@@H](c3ccc(-c4ccccc4)cc3)[C@@H]2C1` the inhibition was inactive: 12%.
In the case of `C[C@H]1CCCCO[C@H](CN(C)Cc2ccc(C(F)(F)F)cc2)[C@@H](C)CN([C@@H](C)CO)C(=O)c2cc(NS(=O)(=O)c3cccs3)ccc2O1`, the inhibition is reported as active: 103%.
With `COc1ccc(NC(=O)Nc2cccc3c2O[C@@H](CN(C)Cc2ccc(Cl)c(Cl)c2)[C@H](C)CN([C@@H](C)CO)C3=O)cc1` the inhibition was active: 53%.
For `C[C@H](CO)N1C[C@H](C)[C@@H](CN(C)S(=O)(=O)c2ccccc2F)Oc2cc(C#Cc3ccccc3)ccc2S1(=O)=O`, the inhibition was inconclusive: 23.8%.
In the case of `COc1ccc(CN(C)C[C@H]2Oc3ccc(NS(=O)(=O)c4ccc(C)cc4)cc3CC(=O)N([C@H](C)CO)C[C@H]2C)cc1`, the inhibition is reported as inconclusive: 23%.
For `COc1ccc(C#Cc2ccc([C@H]3[C@@H](CO)N4CCCCN(C(=O)c5ccncc5)C[C@@H]34)cc2)cc1`, the inhibition was inactive: 26%.
In the case of `C[C@H](CO)N1C[C@H](C)[C@@H](CN(C)C(=O)Nc2ccc(F)cc2)OCCCC[C@H](C)Oc2ccc(NC(=O)Nc3cccc4ccccc34)cc2C1=O`, the inhibition is reported as inconclusive: 19.8%.
In the case of `COc1ccccc1NC(=O)N[C@H]1CC[C@H](CCn2cc(-c3ccccc3OC)nn2)O[C@@H]1CO`, the inhibition is reported as inconclusive: 40.3%.
For `COCC#Cc1cnc2c(c1)C(=O)N([C@@H](C)CO)C[C@@H](C)[C@H](CN(C)C(=O)C1CC1)O2`, the inhibition was inconclusive: 18.4%.
For `CCCC#Cc1ccc([C@H]2[C@@H](CO)N3CCCCN(Cc4ccncc4)C[C@@H]23)cc1`, the inhibition was active: 70.8%.
With `O=S(=O)(c1cccc(F)c1)N1CC[C@@H]2[C@@H](CO)Nc3ccc(C#Cc4ccccc4F)cc3[C@@H]21` the inhibition was inactive: 6.97%.
For `CC(C)C#Cc1ccc2c(c1)O[C@H](CN(C)C(=O)c1cccc(F)c1)[C@@H](C)CN([C@H](C)CO)S2(=O)=O`, the inhibition was inconclusive: 17.5%.
With `CCCNC(=O)N(C)C[C@@H]1Oc2cc(C#Cc3cccc(F)c3)ccc2S(=O)(=O)N([C@@H](C)CO)C[C@H]1C` the inhibition was active: 66.9%.
With `C/C=C/c1ccc2c(c1)O[C@@H](CN(C)C(=O)c1cccc(F)c1)[C@@H](C)CN([C@@H](C)CO)S2(=O)=O` the inhibition was inconclusive: 43.9%.
With `CC(C)CC#Cc1cnc2c(c1)C(=O)N([C@@H](C)CO)C[C@H](C)[C@@H](CN(C)S(=O)(=O)c1ccccc1)O2` the inhibition was inconclusive: 32.3%.
For `C[C@@H]1CN([C@@H](C)CO)C(=O)c2cccc(N(C)C)c2O[C@@H]1CN(C)Cc1ccc(C(F)(F)F)cc1`, the inhibition was inconclusive: 38.4%.
In the case of `C[C@@H]1CN([C@H](C)CO)C(=O)c2cccc(NS(=O)(=O)c3ccc(Cl)cc3)c2O[C@H]1CN(C)Cc1ccc(Oc2ccccc2)cc1`, the inhibition is reported as inactive: 24.4%.
In the case of `COCC(=O)Nc1ccc2c(c1)C(=O)N(C)C[C@H](OC)[C@H](C)CN(Cc1cc(F)ccc1F)[C@H](C)CO2`, the inhibition is reported as inconclusive: 42.4%.
For `CCC(=O)N(C)C[C@@H]1Oc2cc(C#CCN(C)C)ccc2S(=O)(=O)N([C@H](C)CO)C[C@H]1C`, the inhibition was inactive: 5.45%.
With `C[C@H](CO)N1C[C@H](C)[C@H](CN(C)S(=O)(=O)c2ccc(F)cc2)OCCCC[C@H](C)Oc2ccc(NC(=O)Nc3ccc4c(c3)OCO4)cc2C1=O` the inhibition was inactive: 19%.
With `C[C@@H]1CCCCO[C@H](CN(C)S(=O)(=O)c2ccccc2)[C@H](C)CN([C@H](C)CO)C(=O)c2cc(NC(=O)Nc3cccc4ccccc34)ccc2O1` the inhibition was inconclusive: 28.2%.
In the case of `C[C@H]1CN([C@@H](C)CO)C(=O)c2cc(NC(=O)Nc3ccc4c(c3)OCO4)ccc2O[C@@H]1CN(C)Cc1ccc(Oc2ccccc2)cc1`, the inhibition is reported as inconclusive: 33.1%.
For `COc1ccc(-c2ccc3c(c2)[C@@H]2[C@@H](CCN2C(=O)c2ccncc2)[C@@H](CO)N3C)cc1`, the inhibition was inactive: 14.9%.
For `C[C@H](CO)N1C[C@H](C)[C@@H](CN(C)Cc2ccncc2)Oc2ncc(C#Cc3ccccn3)cc2C1=O`, the inhibition was inactive: 6.87%.
In the case of `Cc1ccc(-c2ccc([C@H]3[C@@H](CO)N4CCCCN(C(=O)c5ccc(F)cc5)C[C@H]34)cc2)cc1`, the inhibition is reported as active: 104%.
In the case of `C[C@@H]1CN([C@@H](C)CO)C(=O)c2ccccc2-c2ccccc2CO[C@@H]1CN(C)S(=O)(=O)c1cccs1`, the inhibition is reported as inconclusive: 15.6%.
For `N#C[C@@H]1[C@@H](c2ccc(-c3cncnc3)cc2)[C@H](CO)N1C(=O)C1CCOCC1`, the inhibition was inactive: 0.862%.
With `C[C@H](CO)N1C[C@H](C)[C@@H](CN(C)C(=O)Cc2ccncc2)Oc2ncc(C#Cc3ccccc3F)cc2C1=O` the inhibition was inconclusive: 23.4%.
For `C[C@H]1CN([C@@H](C)CO)C(=O)c2cc(C#Cc3ccccn3)cnc2O[C@@H]1CN(C)Cc1ccccc1`, the inhibition was inactive: -6.29%.
In the case of `CCc1csc(N2[C@H](C#N)[C@@H](c3ccc(-c4ccc(F)cc4)cc3)[C@H]2CO)n1`, the inhibition is reported as inconclusive: 26.7%.
For `C[C@H]1CN([C@@H](C)CO)S(=O)(=O)c2ccc(/C=C/c3ccccc3)cc2O[C@H]1CN(C)C(=O)c1ccc2c(c1)OCO2`, the inhibition was inconclusive: 24%.
With `C[C@H]1CN([C@@H](C)CO)C(=O)c2cc(/C=C/c3ccccc3)cnc2O[C@@H]1CN(C)S(=O)(=O)c1ccccc1` the inhibition was inconclusive: 23.8%.
In the case of `Cc1cccc(S(=O)(=O)N2C[C@@H](O)COC[C@H]3O[C@@H](CC(=O)Nc4ccc(-c5ccccc5)cc4)CC[C@@H]32)c1`, the inhibition is reported as active: 78.4%.
In the case of `C[C@H]1CN([C@@H](C)CO)S(=O)(=O)c2ccc(-c3ccncc3)cc2O[C@@H]1CN(C)C(=O)Nc1ccc(F)cc1`, the inhibition is reported as inconclusive: 18.6%.
With `N#C[C@@H]1[C@@H](c2ccccc2)[C@@H](CO)N1C(=O)Cc1ccccc1` the inhibition was inactive: 17%.
For `Cc1cccc(S(=O)(=O)N2CCCCN3[C@H](CO)[C@@H](c4ccc(C#C[C@H](C)O)cc4)[C@H]3C2)c1`, the inhibition was active: 33.5%.
With `C[C@@H]1CN([C@H](C)CO)S(=O)(=O)c2ccc(-c3cccc(F)c3)cc2O[C@H]1CN(C)C(=O)Nc1cc(F)ccc1F` the inhibition was active: 80.8%.
In the case of `C[C@@H]1CN([C@H](C)CO)C(=O)Cc2cc(NC(=O)Nc3cccc4ccccc34)ccc2O[C@@H]1CN(C)Cc1ccc(-c2ccccc2)cc1`, the inhibition is reported as inconclusive: 20.5%.
For `COCC(=O)N1[C@H](C#N)[C@H](c2ccc(C#Cc3ccccc3F)cc2)[C@@H]1CO`, the inhibition was inconclusive: 19.7%.
With `CC(C)CC#Cc1ccc2c(c1)O[C@H](CN(C)C(=O)Nc1ccccc1)[C@@H](C)CN([C@H](C)CO)S2(=O)=O` the inhibition was inconclusive: 41.2%.
With `C[C@H]1CN([C@@H](C)CO)C(=O)c2cc(/C=C/c3ccccc3)cnc2O[C@@H]1CN(C)C(=O)C1CCCCC1` the inhibition was inconclusive: 47.2%.
With `C[C@@H]1CN([C@H](C)CO)C(=O)c2cccc(NC(=O)NC3CCCCC3)c2O[C@@H]1CN(C)Cc1ccc(-c2ccccc2)cc1` the inhibition was inconclusive: 27.1%.
